No constants are given. Whether binding was seen depends on the method and setting. In cells and extracts the contact can be indirect. Some entries that bind do so weakly or less than the wild type. Tags and fused reporters may be left off the sequences shown.
Biological target: 3 × Flag-importin β1 (human) (UniProt Q14974)
Experiment: co-IP

Amino acid sequences for entries named in this document (tags omitted).
UniProt Q14974: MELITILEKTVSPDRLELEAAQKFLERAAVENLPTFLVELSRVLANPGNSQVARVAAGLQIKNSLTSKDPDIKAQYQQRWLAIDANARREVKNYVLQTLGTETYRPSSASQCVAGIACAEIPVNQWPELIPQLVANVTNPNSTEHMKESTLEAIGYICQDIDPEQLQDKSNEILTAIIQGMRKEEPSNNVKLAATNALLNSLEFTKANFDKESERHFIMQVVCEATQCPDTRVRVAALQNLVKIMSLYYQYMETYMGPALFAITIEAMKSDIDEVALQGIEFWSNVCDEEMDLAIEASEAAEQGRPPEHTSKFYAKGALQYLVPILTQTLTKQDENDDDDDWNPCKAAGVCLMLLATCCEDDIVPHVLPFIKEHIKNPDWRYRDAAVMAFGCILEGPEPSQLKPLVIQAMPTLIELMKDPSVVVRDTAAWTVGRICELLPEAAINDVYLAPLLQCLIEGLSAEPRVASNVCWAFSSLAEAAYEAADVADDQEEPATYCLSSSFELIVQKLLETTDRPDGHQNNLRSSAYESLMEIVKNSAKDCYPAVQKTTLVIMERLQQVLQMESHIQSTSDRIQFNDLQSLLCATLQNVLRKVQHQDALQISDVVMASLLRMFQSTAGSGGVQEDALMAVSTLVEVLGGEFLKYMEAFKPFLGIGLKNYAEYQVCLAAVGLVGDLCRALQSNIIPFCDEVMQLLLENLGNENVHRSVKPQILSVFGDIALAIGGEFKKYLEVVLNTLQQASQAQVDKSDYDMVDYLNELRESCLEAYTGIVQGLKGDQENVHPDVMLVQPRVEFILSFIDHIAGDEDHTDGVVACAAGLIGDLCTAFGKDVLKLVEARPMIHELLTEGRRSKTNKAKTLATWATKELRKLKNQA

B1: EYFP-BFLF2 (protein, UniProt P0CK47 1-318)
chain: MAPVTPDAVNARQQRPADPALRRLMHPHHRNYTASKASAHSVKSVSRCGKSRSELGRMERVGSVARSICSRHTRHGVDRSHFSLRDFFRGISANFELGKDFLREMNTPIHVSEAVFLPLSLCTLSPGRCLRLSPFGHSLTLGSHCEICINRSQVHVPQEFSSTQLSFFNNVHKIIPNKTFYVSLLSSSPSAVKAGLSQPSLLYAYLVTGHFCGTICPIFSTNGKGRLIMHLLLQGTSLHIPETCLKLLCENIGPTYELAVDLVGDAFCIKVSPRDTVYEKAVNVDEDAIYEAIKDLECGDELRLQIINYTQLILENKQ
binding: binds
